At least one peptide structure holds a part that was inferred or is arguable (an end, a ring closure or a residue). Some of these results come from one statement about several compounds together.
Key:
[1] = test system: plasma cyclic-GMP; test: Pharmacodynamic study of plasma cyclic-GMP response in C57BL/6J mice; assay type: in vivo; conditions: 1.0 mg/Kg s.c., FIG. 1B
[2] = healthy human volunteers, bolus injection; cited from earlier work
[3] = test system: cisplatin induced acute kidney injury; test: Cisplatin induced acute kidney injury: kidney function and kidney fibrosis; assay type: in vivo, mice; conditions: CDDP 10 mg/kg IP day 0, 7, 14, 21, 0.1 or 1.0 mg/Kg s.c. 5 times/week for 4 weeks
[4] = test system: LPS-induced acute lung injury; test: LPS-induced acute lung injury: hematoxylin-eosin staining of lung tissue; assay type: in vivo; conditions: C57BL/6J mice, LPS 0.05 mg/kg intratracheal, 1.0 mg/kg s.c., 24 h; FIG. 4B
[5] = test system: AE-IPF model; test: Bleomycin-induced AE-IPF model: lung hydroxyproline and fibrosis area; assay type: in vivo, mice; conditions: bleomycin then LPS after 2 weeks, 0.3 mg/Kg s.c. bolus for 3 consecutive days
[6] = test system: LPS-induced acute lung injury; test: LPS-induced acute lung injury: MPO-positive cells in lung sections; assay type: in vivo; conditions: C57BL/6J mice, LPS 0.05 mg/kg intratracheal, 1.0 mg/kg s.c., 24 h; FIG. 4A
[7] = test system: diet-induced liver fibrosis; test: Diet-induced (CDAHFD) liver fibrosis: liver enzymes and inflammation/fibrosis markers; assay type: in vivo; conditions: CDAHFD mice, s.c. bolus 5 times/week for two weeks, suppressed at 1 mg/Kg long acting CNP derivative and 0.3 and 1 mg/Kg VLA-dCNP
[8] = test system: inflammatory cytokines (IL-6, TNFα, MCP-1) in BALF; test: LPS-induced acute lung injury: inflammatory cytokines in BALF; assay type: in vivo, mice; conditions: LPS 0.05 mg/kg intratracheal, 1.0 mg/kg s.c., 24 h

SMILES	elevation of plasma cyclic-GMP compared to the baseline at 2 hours and beyond [1]	duration of increase in plasma cyclic-GMP [2]	% fibrosis area in kidney ([3]; Masson's Trichrome, FIG. 18C)	kidney function based on serum creatinine ([3]; day 28, FIG. 18A)	inflammatory cell infiltration or inflammation in the lung (H&E staining) [4]	duration of significant elevation of plasma cyclic-GMP [1]	fibrosis based on hydroxyproline in lung tissue ([5]; FIG. 19A)	% fibrosis area in lungs ([5]; Masson's Trichrome, FIG. 19B)	number of MPO positive cells (neutrophils) in lung [6]	liver enzyme aspartate aminotransferase (AST) ([7]; FIG. 17A)	liver enzyme alanine aminotransferase (ALT) ([7]; FIG. 17B)	alpha smooth muscle actin (α-SMA) ([7]; FIG. 17C)	tumor necrosis growth factor alpha (TNF-α) ([7]; FIG. 17D)	monocytes chemoattractant protein 1 (MCP-1) in liver tissue ([7]; FIG. 17E)	IL6 in BALF ([8]; FIG. 5A)	TNFα in BALF ([8]; FIG. 5B)	MCP-1 in BALF ([8]; FIG. 5C)
CC[C@H](C)[C@@H]1NC(=O)[C@H](CCCNC(=N)N)NC(=O)[C@H](CC(=O)O)NC(=O)[C@H](CC(C)C)NC(=O)[C@H](CCCCN)NC(=O)[C@H](CC(C)C)NC(=O)CNC(=O)[C@H](Cc2ccccc2)NC(=O)[C@@H](NC(=O)CNC(=O)[C@H](CCCCN)NC(=O)[C@H](CO)NC(=O)[C@H](CC(C)C)NC(=O)CN)CSSC[C@@H](C(=O)O)NC(=O)CNC(=O)[C@H](CC(C)C)NC(=O)CNC(=O)[C@H](CO)NC(=O)[C@H](CCSC)NC(=O)[C@H](CO)NC(=O)CNC1=O [CNP]	did not show significant elevation	less than 90 minutes															
CCCCCCCCCCCCCCCCCC(=O)N[C@@H](CCCCN)C(=O)N[C@@H](CCCCN)C(=O)N[C@@H](CCCCN)C(=O)N[C@@H](CCCCN)C(=O)NCC(=O)NCC(=O)NCC(=O)NCC(=O)N[C@@H](CC(C)C)C(=O)N[C@@H](CO)C(=O)N[C@@H](CCCCN)C(=O)NCC(=O)N[C@H]1CSSC[C@@H](C(=O)O)NC(=O)CNC(=O)[C@H](CC(C)C)NC(=O)CNC(=O)[C@H](CO)NC(=O)[C@H](CCSC)NC(=O)[C@H](CO)NC(=O)CNC(=O)[C@H]([C@@H](C)CC)NC(=O)[C@H](CCCNC(=N)N)NC(=O)[C@H](CC(=O)O)NC(=O)[C@H](CC(C)C)NC(=O)[C@H](CCCCN)NC(=O)[C@H](CC(C)C)NC(=O)CNC(=O)[C@H](Cc2ccccc2)NC1=O [dCNP]			significant decrease	significant improvement in kidney function	decreased inflammatory cell infiltration or inflammation in the lung	at least 24 hours	significant decrease in fibrosis	significant decrease	Decreased Neutrophil Infiltration in the Lung	significant decrease	significant decrease	significant decrease	significant decrease	significant decrease	attenuated LPS-induced upregulation	attenuated LPS-induced up-regulation	attenuated LPS-induced upregulation

Reference: patent US20230416328A1, “C-Type Natriuretic Peptides and Methods Thereof in Treating Acute Lung Injury” (priority 2020, published 2023)
